Data on 2 substances can be found in doi:10.1101/027789.

Amino acid sequences for entries named in this document (tags omitted).
UniProt P46100: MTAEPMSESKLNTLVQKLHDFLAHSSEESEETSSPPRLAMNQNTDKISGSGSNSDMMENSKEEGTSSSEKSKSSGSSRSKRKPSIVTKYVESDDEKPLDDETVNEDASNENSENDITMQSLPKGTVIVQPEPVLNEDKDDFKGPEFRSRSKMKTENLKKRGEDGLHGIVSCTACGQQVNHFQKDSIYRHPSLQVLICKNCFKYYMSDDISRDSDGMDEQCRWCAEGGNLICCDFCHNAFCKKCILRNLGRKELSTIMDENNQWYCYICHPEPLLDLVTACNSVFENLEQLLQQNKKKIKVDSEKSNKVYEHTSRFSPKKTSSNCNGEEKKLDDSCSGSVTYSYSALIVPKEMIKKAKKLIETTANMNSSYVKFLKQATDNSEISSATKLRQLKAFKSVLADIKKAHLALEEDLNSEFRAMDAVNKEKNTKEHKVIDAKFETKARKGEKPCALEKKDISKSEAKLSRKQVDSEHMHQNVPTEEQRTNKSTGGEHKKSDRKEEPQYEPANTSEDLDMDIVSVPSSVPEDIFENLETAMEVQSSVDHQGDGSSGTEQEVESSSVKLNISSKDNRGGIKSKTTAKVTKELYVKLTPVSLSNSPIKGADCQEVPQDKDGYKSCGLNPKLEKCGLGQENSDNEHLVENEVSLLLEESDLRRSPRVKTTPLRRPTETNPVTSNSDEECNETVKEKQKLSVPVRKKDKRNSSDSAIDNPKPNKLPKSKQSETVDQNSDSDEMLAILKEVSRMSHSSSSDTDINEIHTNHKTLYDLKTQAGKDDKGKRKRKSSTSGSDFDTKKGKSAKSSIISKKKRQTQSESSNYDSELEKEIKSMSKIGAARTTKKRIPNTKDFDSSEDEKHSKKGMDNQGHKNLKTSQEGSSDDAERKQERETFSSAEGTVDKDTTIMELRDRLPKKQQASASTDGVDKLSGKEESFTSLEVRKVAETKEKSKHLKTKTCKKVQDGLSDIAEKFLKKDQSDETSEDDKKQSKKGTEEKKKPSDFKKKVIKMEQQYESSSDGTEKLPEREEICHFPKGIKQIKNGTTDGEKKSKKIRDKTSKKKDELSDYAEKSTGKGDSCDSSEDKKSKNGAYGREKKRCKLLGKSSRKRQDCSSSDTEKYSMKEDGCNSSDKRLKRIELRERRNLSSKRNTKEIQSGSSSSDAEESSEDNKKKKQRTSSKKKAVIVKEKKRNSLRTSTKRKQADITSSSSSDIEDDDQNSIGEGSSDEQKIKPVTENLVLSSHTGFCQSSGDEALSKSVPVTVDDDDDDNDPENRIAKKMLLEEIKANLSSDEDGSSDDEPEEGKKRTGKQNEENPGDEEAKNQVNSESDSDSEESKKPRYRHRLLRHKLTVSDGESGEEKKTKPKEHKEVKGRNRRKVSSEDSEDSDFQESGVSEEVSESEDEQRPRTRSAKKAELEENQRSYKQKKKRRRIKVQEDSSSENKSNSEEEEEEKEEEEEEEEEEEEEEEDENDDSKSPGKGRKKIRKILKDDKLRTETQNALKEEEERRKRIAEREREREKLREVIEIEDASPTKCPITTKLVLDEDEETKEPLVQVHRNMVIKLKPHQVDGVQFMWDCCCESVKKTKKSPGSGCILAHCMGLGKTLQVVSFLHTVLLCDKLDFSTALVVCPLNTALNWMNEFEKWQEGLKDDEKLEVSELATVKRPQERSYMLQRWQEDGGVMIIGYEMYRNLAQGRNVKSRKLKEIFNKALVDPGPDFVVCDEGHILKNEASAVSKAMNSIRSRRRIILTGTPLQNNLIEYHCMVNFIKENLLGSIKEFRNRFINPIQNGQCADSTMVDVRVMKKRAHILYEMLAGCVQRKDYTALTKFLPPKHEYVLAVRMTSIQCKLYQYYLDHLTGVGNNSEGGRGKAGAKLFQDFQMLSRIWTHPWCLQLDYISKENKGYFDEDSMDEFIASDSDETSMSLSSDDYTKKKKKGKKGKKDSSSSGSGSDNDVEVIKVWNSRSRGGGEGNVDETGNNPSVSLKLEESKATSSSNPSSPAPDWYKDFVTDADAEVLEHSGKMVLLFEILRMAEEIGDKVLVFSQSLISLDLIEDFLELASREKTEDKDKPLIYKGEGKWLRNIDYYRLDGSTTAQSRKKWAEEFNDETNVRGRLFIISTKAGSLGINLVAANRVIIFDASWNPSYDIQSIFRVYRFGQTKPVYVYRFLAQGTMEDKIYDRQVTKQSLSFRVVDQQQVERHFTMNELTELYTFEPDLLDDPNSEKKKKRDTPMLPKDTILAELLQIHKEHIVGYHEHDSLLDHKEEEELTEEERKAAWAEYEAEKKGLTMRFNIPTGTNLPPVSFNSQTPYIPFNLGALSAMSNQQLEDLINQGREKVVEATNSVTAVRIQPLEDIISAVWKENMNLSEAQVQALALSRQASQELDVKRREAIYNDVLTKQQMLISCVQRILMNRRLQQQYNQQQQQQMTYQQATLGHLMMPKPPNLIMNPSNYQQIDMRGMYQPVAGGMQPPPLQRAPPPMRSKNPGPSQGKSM
UniProt Q13263: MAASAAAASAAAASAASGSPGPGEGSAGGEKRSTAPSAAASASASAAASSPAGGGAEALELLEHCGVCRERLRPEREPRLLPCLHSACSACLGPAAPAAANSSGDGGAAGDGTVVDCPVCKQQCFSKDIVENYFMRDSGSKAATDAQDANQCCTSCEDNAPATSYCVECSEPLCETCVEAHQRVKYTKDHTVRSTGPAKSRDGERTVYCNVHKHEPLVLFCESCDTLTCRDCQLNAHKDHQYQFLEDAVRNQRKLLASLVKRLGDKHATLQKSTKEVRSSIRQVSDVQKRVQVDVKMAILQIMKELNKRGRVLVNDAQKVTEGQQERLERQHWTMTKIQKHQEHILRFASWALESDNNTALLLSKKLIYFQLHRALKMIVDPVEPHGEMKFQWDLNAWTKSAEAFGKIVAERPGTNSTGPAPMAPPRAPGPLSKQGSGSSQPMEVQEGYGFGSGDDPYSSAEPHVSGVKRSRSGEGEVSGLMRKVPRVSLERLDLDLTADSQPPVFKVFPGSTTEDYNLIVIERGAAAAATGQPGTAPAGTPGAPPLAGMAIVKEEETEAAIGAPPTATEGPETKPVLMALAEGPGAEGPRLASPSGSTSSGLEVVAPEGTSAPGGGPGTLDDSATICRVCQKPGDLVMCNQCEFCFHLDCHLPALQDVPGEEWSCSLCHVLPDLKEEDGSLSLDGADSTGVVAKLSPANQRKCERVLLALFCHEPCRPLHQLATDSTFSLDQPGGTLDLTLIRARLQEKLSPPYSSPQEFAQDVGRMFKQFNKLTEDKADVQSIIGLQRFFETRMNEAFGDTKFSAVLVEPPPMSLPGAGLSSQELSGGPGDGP
UniProt Q96GC6: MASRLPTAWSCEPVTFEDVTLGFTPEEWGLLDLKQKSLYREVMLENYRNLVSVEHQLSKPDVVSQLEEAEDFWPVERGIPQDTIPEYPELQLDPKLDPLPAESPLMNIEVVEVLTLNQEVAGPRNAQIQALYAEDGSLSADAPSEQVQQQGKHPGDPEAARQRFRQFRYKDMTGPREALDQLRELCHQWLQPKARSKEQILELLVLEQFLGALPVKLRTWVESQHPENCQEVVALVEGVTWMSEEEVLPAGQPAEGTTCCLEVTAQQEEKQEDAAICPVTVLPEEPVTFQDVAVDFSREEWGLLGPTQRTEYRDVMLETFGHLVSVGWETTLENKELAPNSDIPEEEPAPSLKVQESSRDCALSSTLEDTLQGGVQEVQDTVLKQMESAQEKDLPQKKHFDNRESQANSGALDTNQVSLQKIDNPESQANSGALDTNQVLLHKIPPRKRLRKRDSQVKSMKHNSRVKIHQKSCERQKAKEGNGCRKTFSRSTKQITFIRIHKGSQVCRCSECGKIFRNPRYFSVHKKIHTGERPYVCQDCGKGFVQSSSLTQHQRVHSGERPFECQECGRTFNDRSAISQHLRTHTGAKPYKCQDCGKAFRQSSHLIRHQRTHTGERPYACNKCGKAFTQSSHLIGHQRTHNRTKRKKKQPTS

These are yes or no findings as the source states them, for the method shown. In cells and extracts the contact can be indirect. Some binding calls cover weakened binding; strength is not graded here.

This experiment addresses ATRX (human (endogenous in K562)) (UniProt P46100). The experiment is described as follows: co-IP.

TRIM28 (from UniProt Q13263 1-835): the binding result is “binds”.

For the substance ZNF274 (from UniProt Q96GC6 1-653), the binding result is listed as “binds”.
